According to the supplement of paper PMC12823440, “Inhibitors supercharge kinase turnover through native proteolytic circuits” (Nature, 2025):
Where a name gives a salt, the structure may show the parent alone. The list shows a part of the results. Hit calls seldom repeat between salt and free forms of one compound.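 Kinases were expressed as nanoluciferase fusions in K562 cells and luminescence was read every 4 h between 2 and 18 h as percent of control, DMSO set to 100% and a positive control to 0%. A time point counts as decreased when the signal drops significantly (2 sigma). The hit call is the authors' own, does not follow from the count of time points alone, and its rule is not shown.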

Amino acid sequences for entries named in this document (tags omitted). A change or cut given only in a name is not applied to a line headed by its entry.
UniProt Q15208: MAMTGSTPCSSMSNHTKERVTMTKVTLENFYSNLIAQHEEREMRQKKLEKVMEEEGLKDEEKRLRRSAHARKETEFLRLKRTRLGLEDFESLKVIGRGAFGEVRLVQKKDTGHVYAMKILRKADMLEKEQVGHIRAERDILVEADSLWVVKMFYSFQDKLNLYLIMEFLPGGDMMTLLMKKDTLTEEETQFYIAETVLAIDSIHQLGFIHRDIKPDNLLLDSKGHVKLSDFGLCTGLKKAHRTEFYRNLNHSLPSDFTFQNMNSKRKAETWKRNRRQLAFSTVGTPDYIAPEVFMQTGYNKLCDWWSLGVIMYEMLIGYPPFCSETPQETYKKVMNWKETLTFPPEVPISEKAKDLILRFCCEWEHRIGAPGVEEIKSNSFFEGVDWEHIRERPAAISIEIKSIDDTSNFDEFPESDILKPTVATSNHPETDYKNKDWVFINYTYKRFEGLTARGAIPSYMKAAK
UniProt P42680: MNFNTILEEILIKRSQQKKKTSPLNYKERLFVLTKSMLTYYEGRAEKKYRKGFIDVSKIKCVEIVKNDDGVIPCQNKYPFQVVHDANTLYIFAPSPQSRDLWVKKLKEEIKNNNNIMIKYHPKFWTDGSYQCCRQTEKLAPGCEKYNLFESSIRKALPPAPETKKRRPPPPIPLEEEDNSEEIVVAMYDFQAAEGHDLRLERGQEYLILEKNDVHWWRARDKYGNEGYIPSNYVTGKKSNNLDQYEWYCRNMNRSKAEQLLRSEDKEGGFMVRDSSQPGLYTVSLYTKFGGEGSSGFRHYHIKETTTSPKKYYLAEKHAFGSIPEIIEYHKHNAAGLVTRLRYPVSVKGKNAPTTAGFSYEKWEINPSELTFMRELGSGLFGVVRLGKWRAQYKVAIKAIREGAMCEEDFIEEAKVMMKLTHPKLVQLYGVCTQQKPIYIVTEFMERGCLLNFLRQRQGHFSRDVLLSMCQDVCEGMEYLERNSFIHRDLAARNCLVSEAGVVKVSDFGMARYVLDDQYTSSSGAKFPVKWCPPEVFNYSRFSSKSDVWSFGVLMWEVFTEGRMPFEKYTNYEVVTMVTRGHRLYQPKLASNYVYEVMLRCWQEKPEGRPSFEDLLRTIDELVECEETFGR
UniProt P29597: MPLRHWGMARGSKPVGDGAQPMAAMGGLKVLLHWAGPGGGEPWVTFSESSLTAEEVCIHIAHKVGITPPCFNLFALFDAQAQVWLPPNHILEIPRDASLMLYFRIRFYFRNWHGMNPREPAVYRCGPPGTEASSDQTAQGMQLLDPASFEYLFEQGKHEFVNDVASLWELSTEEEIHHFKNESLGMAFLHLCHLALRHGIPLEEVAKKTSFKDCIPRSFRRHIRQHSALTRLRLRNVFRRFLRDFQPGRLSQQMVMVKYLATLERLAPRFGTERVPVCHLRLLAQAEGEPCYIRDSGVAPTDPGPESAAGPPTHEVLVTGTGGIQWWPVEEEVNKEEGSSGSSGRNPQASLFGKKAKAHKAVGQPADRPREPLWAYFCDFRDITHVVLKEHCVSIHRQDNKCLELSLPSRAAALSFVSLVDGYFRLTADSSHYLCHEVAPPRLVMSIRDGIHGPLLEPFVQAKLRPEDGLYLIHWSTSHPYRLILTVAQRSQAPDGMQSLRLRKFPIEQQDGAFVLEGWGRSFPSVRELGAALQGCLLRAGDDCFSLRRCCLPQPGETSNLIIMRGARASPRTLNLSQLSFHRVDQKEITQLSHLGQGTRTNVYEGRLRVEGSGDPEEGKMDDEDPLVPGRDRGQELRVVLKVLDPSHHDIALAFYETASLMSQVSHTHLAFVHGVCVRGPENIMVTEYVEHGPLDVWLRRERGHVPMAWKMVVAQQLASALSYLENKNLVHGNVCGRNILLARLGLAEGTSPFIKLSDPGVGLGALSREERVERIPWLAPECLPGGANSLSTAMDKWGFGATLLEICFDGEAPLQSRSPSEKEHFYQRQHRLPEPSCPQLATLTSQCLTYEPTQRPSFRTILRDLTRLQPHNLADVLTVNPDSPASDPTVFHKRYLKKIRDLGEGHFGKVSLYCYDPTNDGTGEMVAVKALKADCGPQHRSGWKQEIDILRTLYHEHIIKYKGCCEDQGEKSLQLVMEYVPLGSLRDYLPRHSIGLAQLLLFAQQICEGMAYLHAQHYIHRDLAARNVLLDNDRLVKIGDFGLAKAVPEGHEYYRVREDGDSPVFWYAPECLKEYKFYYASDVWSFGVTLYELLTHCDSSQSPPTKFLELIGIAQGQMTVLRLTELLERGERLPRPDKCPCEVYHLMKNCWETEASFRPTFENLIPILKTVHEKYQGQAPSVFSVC
UniProt Q6PHR2: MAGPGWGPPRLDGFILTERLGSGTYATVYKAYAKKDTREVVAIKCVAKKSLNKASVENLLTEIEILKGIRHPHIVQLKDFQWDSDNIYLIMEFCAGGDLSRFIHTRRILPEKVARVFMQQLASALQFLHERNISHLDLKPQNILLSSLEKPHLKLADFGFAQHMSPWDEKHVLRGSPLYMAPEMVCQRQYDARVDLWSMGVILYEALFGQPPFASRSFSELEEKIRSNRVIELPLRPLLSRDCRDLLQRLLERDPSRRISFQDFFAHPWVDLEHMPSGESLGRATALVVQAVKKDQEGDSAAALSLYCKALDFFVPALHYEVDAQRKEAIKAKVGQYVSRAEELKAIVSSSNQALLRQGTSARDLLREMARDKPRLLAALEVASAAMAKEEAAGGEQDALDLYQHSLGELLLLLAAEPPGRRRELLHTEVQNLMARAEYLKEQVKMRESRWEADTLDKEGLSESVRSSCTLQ
UniProt P07947, whole entry, looked up: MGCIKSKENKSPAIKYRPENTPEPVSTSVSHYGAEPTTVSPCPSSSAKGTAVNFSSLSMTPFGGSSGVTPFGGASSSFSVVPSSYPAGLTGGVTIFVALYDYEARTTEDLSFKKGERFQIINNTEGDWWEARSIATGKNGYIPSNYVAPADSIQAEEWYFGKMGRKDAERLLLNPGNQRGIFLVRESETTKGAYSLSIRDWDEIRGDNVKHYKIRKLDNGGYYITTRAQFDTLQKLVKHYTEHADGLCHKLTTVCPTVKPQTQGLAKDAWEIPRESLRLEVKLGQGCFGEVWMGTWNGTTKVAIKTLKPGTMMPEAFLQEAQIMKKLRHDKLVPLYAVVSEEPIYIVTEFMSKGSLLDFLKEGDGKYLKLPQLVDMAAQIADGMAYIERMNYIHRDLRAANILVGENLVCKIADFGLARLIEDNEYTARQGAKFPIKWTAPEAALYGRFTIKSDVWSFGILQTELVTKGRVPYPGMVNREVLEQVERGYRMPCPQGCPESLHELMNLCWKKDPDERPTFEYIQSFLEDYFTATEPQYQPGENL
UniProt P43403: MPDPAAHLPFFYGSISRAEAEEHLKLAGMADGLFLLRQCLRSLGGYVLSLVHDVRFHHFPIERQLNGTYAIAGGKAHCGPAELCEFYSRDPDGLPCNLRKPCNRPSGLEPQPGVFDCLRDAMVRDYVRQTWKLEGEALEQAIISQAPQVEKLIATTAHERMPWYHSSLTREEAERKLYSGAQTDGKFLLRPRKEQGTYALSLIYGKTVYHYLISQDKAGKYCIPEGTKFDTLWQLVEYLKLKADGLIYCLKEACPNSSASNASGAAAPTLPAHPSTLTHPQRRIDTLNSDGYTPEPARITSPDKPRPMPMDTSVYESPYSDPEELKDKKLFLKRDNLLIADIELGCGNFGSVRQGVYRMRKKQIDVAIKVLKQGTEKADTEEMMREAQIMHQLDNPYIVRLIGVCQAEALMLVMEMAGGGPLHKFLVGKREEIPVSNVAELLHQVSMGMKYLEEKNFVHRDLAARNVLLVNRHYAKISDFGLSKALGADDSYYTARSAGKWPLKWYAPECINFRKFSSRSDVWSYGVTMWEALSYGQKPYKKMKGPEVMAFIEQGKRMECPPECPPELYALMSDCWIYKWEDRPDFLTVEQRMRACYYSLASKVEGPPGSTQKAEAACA
UniProt P00519, whole entry: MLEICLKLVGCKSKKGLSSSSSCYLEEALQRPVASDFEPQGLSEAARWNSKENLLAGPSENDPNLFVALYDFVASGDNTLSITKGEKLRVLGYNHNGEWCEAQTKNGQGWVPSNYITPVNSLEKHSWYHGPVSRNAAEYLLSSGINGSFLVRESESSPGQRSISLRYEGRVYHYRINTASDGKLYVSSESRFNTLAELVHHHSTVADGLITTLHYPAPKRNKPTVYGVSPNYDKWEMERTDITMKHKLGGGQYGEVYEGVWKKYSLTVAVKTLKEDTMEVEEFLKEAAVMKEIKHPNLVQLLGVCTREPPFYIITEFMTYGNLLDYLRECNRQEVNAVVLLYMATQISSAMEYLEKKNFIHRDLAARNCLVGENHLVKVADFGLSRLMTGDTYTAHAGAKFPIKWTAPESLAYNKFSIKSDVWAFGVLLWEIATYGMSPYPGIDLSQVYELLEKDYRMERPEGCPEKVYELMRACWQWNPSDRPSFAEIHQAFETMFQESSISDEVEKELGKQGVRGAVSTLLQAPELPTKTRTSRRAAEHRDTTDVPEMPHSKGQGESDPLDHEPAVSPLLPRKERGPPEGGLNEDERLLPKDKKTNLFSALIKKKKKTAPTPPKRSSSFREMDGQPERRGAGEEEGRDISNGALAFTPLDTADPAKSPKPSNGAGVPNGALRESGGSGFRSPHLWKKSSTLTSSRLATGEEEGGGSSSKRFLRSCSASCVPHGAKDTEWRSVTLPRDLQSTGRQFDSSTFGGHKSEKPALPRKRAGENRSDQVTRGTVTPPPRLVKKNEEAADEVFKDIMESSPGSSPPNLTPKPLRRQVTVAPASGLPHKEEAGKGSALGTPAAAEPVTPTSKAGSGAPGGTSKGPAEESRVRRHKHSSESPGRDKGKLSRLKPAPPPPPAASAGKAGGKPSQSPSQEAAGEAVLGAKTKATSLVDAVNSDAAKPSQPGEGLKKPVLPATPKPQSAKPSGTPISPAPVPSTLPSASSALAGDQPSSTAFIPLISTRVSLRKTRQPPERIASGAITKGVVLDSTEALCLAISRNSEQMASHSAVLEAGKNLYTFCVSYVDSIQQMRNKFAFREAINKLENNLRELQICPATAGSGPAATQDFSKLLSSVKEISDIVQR
UniProt P31749: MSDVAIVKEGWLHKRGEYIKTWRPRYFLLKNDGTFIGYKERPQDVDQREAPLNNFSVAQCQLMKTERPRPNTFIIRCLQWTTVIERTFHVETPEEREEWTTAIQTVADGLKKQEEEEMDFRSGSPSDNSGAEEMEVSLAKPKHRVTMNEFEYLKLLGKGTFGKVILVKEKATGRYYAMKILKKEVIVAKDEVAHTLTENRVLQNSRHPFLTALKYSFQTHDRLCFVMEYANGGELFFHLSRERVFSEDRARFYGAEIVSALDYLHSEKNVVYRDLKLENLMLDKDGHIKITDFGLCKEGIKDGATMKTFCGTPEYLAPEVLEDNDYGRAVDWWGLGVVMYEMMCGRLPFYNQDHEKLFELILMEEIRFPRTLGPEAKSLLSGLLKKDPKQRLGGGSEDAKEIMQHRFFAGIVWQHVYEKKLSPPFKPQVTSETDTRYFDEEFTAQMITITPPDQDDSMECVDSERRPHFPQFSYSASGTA

What was measured:
Settings in all cases: K562; 2-18 h
STK38 = STK38 (UniProt Q15208); assay: kinase-Nluc reporter destabilization hit call (1 = scored as downregulated) (binary); higher = compound decreases kinase abundance
SYK = SYK (UniProt P43405); assay: as above
TEC = TEC (UniProt P42680); assay: as above
TYK2 = TYK2 (UniProt P29597); assay: as above
ULK3 = ULK3 (UniProt Q6PHR2); assay: as above
YES1 = YES1 (UniProt P07947); assay: as above
ZAK = ZAK (UniProt Q9NYL2); assay: as above
ZAP70 = ZAP70 (UniProt P43403); assay: as above
ABL1 = ABL1 (UniProt P00519); assay: number of time points (of 5) at which kinase-Nluc abundance scored as decreased, DMSO-normalised (count); higher = more persistent destabilization
AKT1 = AKT1 (UniProt P31749); assay: as above

SMILES	kinase-Nluc reporter destabilization hit call (STK38)	kinase-Nluc reporter destabilization hit call (SYK)	kinase-Nluc reporter destabilization hit call (TEC)	kinase-Nluc reporter destabilization hit call (TYK2)	kinase-Nluc reporter destabilization hit call (ULK3)	kinase-Nluc reporter destabilization hit call (YES1)	kinase-Nluc reporter destabilization hit call (ZAK)	kinase-Nluc reporter destabilization hit call (ZAP70)	number of time points (ABL1)	number of time points (AKT1)
CC[C@@](C)(Nc1ccnc(-c2c[nH]c3ncccc23)n1)C(=O)NCC(F)(F)F [Decernotinib] (10 µM)	inactive: 0	inactive: 0	inactive: 0	inactive: 0	inactive: 0	inactive: 0	inactive: 0	inactive: 0	0	0
O=C(CNc1cccc(Cl)c1)NC1CCCN(c2ncnc3[nH]ccc23)C1 (stereo not given) (10 µM)	inactive: 0	inactive: 0	inactive: 0	inactive: 0	inactive: 0	inactive: 0	inactive: 0	inactive: 0	0	0
NC1=NCCN1CC(=O)O [Cyclocreatine] (10 µM)	inactive: 0	inactive: 0	inactive: 0	inactive: 0	inactive: 0	inactive: 0	inactive: 0	inactive: 0	0	0
Nc1c(C(=O)NCc2ccc(C(=O)NCCCC3CCCCC3)cc2)cnn1-c1ccccc1 (2.5 µM)	inactive: 0	inactive: 0	inactive: 0	inactive: 0	inactive: 0	inactive: 0	inactive: 0	inactive: 0	0	0
O=C1O[C@H]([C@@H](O)CO)C(O)=C1OP(=O)(O)O [2-Phospho-L-ascorbic acid (trisodium)] (10 µM)	inactive: 0	inactive: 0	inactive: 0	inactive: 0	inactive: 0	inactive: 0	inactive: 0	inactive: 0	0	0
N#Cc1c2nc3ccccc3nc2n2ccc(NC(=O)c3cccs3)cc12 (10 µM)	inactive: 0	inactive: 0	inactive: 0	inactive: 0	inactive: 0	inactive: 0	inactive: 0	inactive: 0	0	0
Nc1nccc(Oc2ccc(NC(=O)c3c[nH]cc(-c4ccc(F)cc4)c3=O)cc2F)c1Cl (10 µM)	inactive: 0	inactive: 0	inactive: 0	inactive: 0	active: 1	inactive: 0	inactive: 0	inactive: 0	4	0
O=C(O)c1cc(N(Cc2ccccc2O)Cc2ccccc2O)ccc1O [Lavendustin B] (10 µM)	inactive: 0	inactive: 0	inactive: 0	inactive: 0	inactive: 0	inactive: 0	inactive: 0	inactive: 0	0	0
CC(C)CNc1ccnc(NCc2csc(-c3ccccc3)n2)n1 [KHS101 hydrochloride] (2.5 µM)	inactive: 0	inactive: 0	inactive: 0	inactive: 0	inactive: 0	inactive: 0	inactive: 0	inactive: 0	0	0
O=[N+]([O-])c1ccc2c(c1)S(=O)(=O)C=C2 [Stattic] (2.5 µM)	inactive: 0	inactive: 0	inactive: 0	inactive: 0	inactive: 0	inactive: 0	inactive: 0	inactive: 0	3	0
CCOC(=O)N1C/C(=C/c2ccccc2F)C(=O)/C(=C\c2ccccc2F)C1 (2.5 µM)	inactive: 0	inactive: 0	inactive: 0	inactive: 0	inactive: 0	inactive: 0	inactive: 0	inactive: 0	0	0
CN1CC[C@@H](c2c(O)cc(O)c3c(=O)cc(-c4ccc(C(F)(F)F)cc4Cl)oc23)[C@@H]1CO [Voruciclib (hydrochloride)] (10 µM)	inactive: 0	inactive: 0	inactive: 0	inactive: 0	inactive: 0	inactive: 0	inactive: 0	inactive: 0	0	0
Nc1nc(N)c2nc(-c3cccc(O)c3)cnc2n1 (10 µM)	inactive: 0	inactive: 0	inactive: 0	inactive: 0	inactive: 0	inactive: 0	inactive: 0	inactive: 0	0	0
C=CC(=O)N1C(=O)CC(c2ccc(F)cc2)Sc2ccccc21 (stereo not drawn) [GSK-3β inhibitor 3] (10 µM)	inactive: 0	inactive: 0	inactive: 0	inactive: 0	inactive: 0	inactive: 0	inactive: 0	inactive: 0	0	0
Cc1ccc(NC(=O)c2ccc(CN(CCN(C)C)C(=O)c3cccnc3)cc2)cc1Nc1nccc(-c2cccnc2)n1 [PDGFRα kinase inhibitor 1] (10 µM)	inactive: 0	inactive: 0	inactive: 0	inactive: 0	inactive: 0	inactive: 0	inactive: 0	inactive: 0	0	0

Pulled by compound from above (2):
SMILES	kinase-Nluc reporter destabilization hit call (STK38)	kinase-Nluc reporter destabilization hit call (SYK)	kinase-Nluc reporter destabilization hit call (TEC)	kinase-Nluc reporter destabilization hit call (TYK2)	kinase-Nluc reporter destabilization hit call (ULK3)	kinase-Nluc reporter destabilization hit call (YES1)	kinase-Nluc reporter destabilization hit call (ZAK)	kinase-Nluc reporter destabilization hit call (ZAP70)	number of time points (ABL1)	number of time points (AKT1)
Nc1c(C(=O)NCc2ccc(C(=O)NCCCC3CCCCC3)cc2)cnn1-c1ccccc1 (2.5 µM)	inactive: 0	inactive: 0	inactive: 0	inactive: 0	inactive: 0	inactive: 0	inactive: 0	inactive: 0	0	0
CN1CC[C@@H](c2c(O)cc(O)c3c(=O)cc(-c4ccc(C(F)(F)F)cc4Cl)oc23)[C@@H]1CO [Voruciclib (hydrochloride)] (10 µM)	inactive: 0	inactive: 0	inactive: 0	inactive: 0	inactive: 0	inactive: 0	inactive: 0	inactive: 0	0	0
